# Values from PubChem BioAssay AID504808 (Drosophila RNAi Screening Center, 2011).
# Aim: 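Fly genes required to hold E2F transcription in check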 (primary screen)
# Cells: Drosophila S2 cells
# Reagent: long dsRNA against Drosophila genes
# Measurement: 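Dual luciferase plate measurements; E2F-specific signal taken as firefly over Renilla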
# Reading the numbers: E2F firefly: higher = more E2F reporter activity; Renilla normaliser: higher = more normaliser reporter signal
# Hit rule: 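Called active if the normalised E2F reporter went up by over 50%; the cutoff is arbitrary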
# The screen tested about 21,000 reagents; shown is an unselected part of those that have a named target and a result. Over the whole deposit, 18 (0.084%) are marked active. 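Raw counts without plate normalisation, one of two replicates; the ratio scores behind the calls were not deposited.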 A plus sign joins genes that one reagent is predicted to hit. Not given: the amount of reagent, the time to read-out.
Gene,PubChem SID,"E2F firefly, rep 1","Renilla normaliser, rep 1",Outcome
CG15803,SID104194913,1.54e5,8066,inactive
tub (tube),SID104192181,73437,3585,inactive
CG2993,SID104194076,1.27e5,6001,inactive
CG2993,SID104195249,71697,3430,inactive
CG5056,SID104182600,1.52e5,5305,inactive
ptc (patched),SID104184909,1.32e5,5932,inactive
ptc (patched),SID104187461,1.55e5,5070,inactive
CG3246,SID104180376,1.41e5,4848,inactive
CG4465,SID104195376,1.35e5,7077,inactive
ort (ora transientless),SID104196032,1.55e5,7523,inactive
MCPH1 (Microcephalin),SID104186101,157,33,inactive
MCPH1 (Microcephalin),SID104187100,1.08e5,4228,inactive
CG32473,SID104194144,1.18e5,5653,inactive
CG32473,SID104196238,83775,3218,inactive
CG42613,SID104193124,90235,2696,inactive
CG42613,SID104194561,98702,5566,inactive
CG42613,SID104195594,85471,5663,inactive
CG11380,SID104198424,70673,3993,inactive
CG15870,SID104186380,1.07e5,4462,inactive
Ets21C (Ets at 21C),SID104180543,1.84e5,6565,inactive
CG5895,SID104190346,1.75e5,7316,inactive
CG10405,SID104194030,95187,5271,inactive
velo (veloren),SID104188633,60747,2749,inactive
velo (veloren),SID104189490,62428,3860,inactive
CG11865,SID104181664,1.07e5,4577,inactive
fd3F + CG42499 (retired record),SID104197952,1.03e5,7919,inactive
fd3F + CG42499 (retired record),SID104197953,1.28e5,9683,inactive
MICAL-like,SID104189621,73103,3223,inactive
Tektin-A (Tektin A),SID104181713,85533,4069,inactive
CG10366,SID104181838,82782,3430,inactive
Roc1b + Cdc5,SID104188479,1.03e5,4210,inactive

Reformatted: results already given.
CG3246 [SID104180376] | E2F firefly, rep 1: 1.41e5; Renilla normaliser, rep 1: 4848; Outcome: inactive
CG4465 [SID104195376] | E2F firefly, rep 1: 1.35e5; Renilla normaliser, rep 1: 7077; Outcome: inactive
ort (ora transientless) [SID104196032] | E2F firefly, rep 1: 1.55e5; Renilla normaliser, rep 1: 7523; Outcome: inactive

The listing continues:
Gene,PubChem SID,"E2F firefly, rep 1","Renilla normaliser, rep 1",Outcome
CG3907,SID104184224,1.29e5,5056,inactive
CG3625,SID104179800,1.58e5,5285,inactive
CG3625,SID104180413,89248,4189,inactive
CG10839,SID104181757,1.23e5,4433,inactive
Xe7,SID104192099,1.21e5,5355,inactive
CG8306,SID104186933,66410,3478,inactive
lola (longitudinals lacking),SID104185012,1.21e5,4373,inactive
lola (longitudinals lacking),SID104185013,1.58e5,4959,inactive
lola (longitudinals lacking),SID104185014,1.29e5,4334,inactive
lola (longitudinals lacking),SID104185015,89827,3185,inactive
lola (longitudinals lacking),SID104185016,1.33e5,4890,inactive
lola (longitudinals lacking),SID104186530,2424,227,inactive
lola (longitudinals lacking),SID104186531,1.49e5,5325,inactive
lola (longitudinals lacking),SID104186532,2796,204,inactive
lola (longitudinals lacking),SID104186533,1.40e5,4859,inactive
lola (longitudinals lacking),SID104186534,1.37e5,4118,inactive
lola (longitudinals lacking),SID104187438,2532,218,inactive
lola (longitudinals lacking),SID104187439,1.54e5,4780,inactive
beta-Man (beta-Mannosidase),SID104192000,69543,4072,inactive
beta-Man (beta-Mannosidase),SID104192001,1.50e5,7183,inactive
Karybeta3 (Karyopherin beta 3),SID104192147,89771,4060,inactive
CG4872,SID104199713,1.63e5,6488,inactive
CG42307 + mus312,SID104190800,96040,4084,inactive
Acsx2 (Acyl-CoA synthetase X2),SID104194100,1.38e5,7809,inactive
bic (bicaudal),SID104187376,2602,198,inactive
CG33286,SID104191483,1.32e5,6873,inactive
